Usually AC50 stands for the concentration at which the activity in the assay is half-maximal.

The assay can be described thus: qHTS Assay to Find Inhibitors of Chronic Active B-Cell Receptor Signaling. The following applies: ABC-DLBCL IkBa-CBG/CBR reporter, luminescence ratio (green luciferase fused to IkBa over red control in TMD8 lymphoma cells), 4 h. The method in brief:
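Doxycycline induced both beetle luciferases in TMD8 lymphoma cells; IKK-driven degradation limits the IkappaBalpha-fused green signal, while red luminescence normalises for cell number and nonspecific effects. Compounds tested up to 46 uM, 4 hrs.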
In general terms: qHTS replaces the single test concentration by a dilution series.

Setting [1] is: measured here: CBR red luminescence, cell number.
Where [2] appears, read: measured here: IkBa-CBG green luminescence.

Some of the results follow. These are further read-outs of the screen, such as a control signal, another cell line or another target. No call is given for them. Most of these compounds were active or inconclusive in the main read-out, so they are no random draw. Potencies come from curve fits of mixed quality, noted in brackets.

As to `O=C(NC(=S)NNC(=O)c1cccs1)c1ccc(Br)o1`, the AC50 under setting [1] is 13 µM [falling, partial curve, poor fit].

With `O=C(Nc1ccc(Cn2nnc3ccccc32)cc1)c1ccco1`, the half-maximal activity concentration (AC50) under setting [1] was 11.2 µM [rising, partial curve, poor fit].

Consider `OC(C#Cc1ccccn1)c1cccs1` (centres undefined), for which the concentration at half-maximal activity (AC50) is 6.31 µM [falling, full curve] under setting [1] and 0.631 µM [falling, partial curve, poor fit] under setting [2].

With `O=C(Nc1ccccc1O)c1c(O)c2c([nH]c1=O)CCCC2`, under setting [1], the AC50 was 14.1 µM [falling, partial curve].

Consider `O=C(CSc1cn[nH]n1)Nc1ccccc1C(=O)O`, for which the AC50 under setting [1] is 11.2 µM [falling, partial curve].

Consider `Cc1ccc(S(=O)(=O)Nc2cccc(C(=O)Nc3cc(C)ccn3)c2)cc1`, for which the AC50 under setting [1] was 20.6 µM [falling, single point].

Regarding `CCOC(=O)C1C(=O)C(C(C)=O)C(=O)CC1CC(C)SCC` (centres undefined), under setting [1], the AC50 is 7.31 µM [falling, single point].

As to `O=C(NC(NC(=S)Nc1c(Cl)cccc1Cl)C(Cl)(Cl)Cl)c1cccc([N+](=O)[O-])c1` (centres undefined), the half-maximal activity concentration (AC50) reads like this: under setting [1], 29.1 µM [falling, single point]; under setting [2], 20.6 µM [rising, partial curve, poor fit].

On to `Cc1cc(=O)oc(C)c1C(=O)Nc1ccc2ncccc2c1`, for which the AC50 under setting [1] is 25.9 µM [rising, single point].

For `COc1ccccc1NC(=O)COc1ccc(C(=O)OCC(=O)N(C(C)C)C(C)C)cc1OC`, under setting [1], the AC50 is 0.461 µM [rising, full curve, poor fit].

For `C/C(=N\NC(=O)c1ccc(CN2CCOCC2)cc1)c1ccc(NC(=O)c2ccccc2)cc1`, under setting [1], the AC50 is 6.31 µM [falling, partial curve].

As to `O=C(CCCc1c[nH]c2ccccc12)NCCc1c[nH]c2ccccc12`, the half-maximal activity concentration (AC50) under setting [1] is 7.94 µM [falling, partial curve, poor fit].

`O=C1CC(N2CCc3ccccc32)C(=O)N1c1ccccc1` (centres undefined): the AC50 under setting [1] was 10 µM [falling, partial curve, poor fit].

Consider `Cc1ccc(S(=O)(=O)NNC2=NCCCCC2)cc1`, for which the AC50 under setting [1] is 11.2 µM [falling, partial curve].

For the compound `COc1ccc2c(c1)[nH]c1c(N3CCN(Cc4ccc5c(c4)OCO5)CC3)ncnc12`, the AC50 under setting [1] was 35.5 µM [falling, single point].

For `c1cncc(CSc2ccc(-c3ccc4c(c3)OCO4)nn2)c1`, the AC50 under setting [1] is 35.5 µM [falling, single point].

Regarding `Cc1ccc2c(c1)N(CC(=O)N1CCN(c3nc4ccccc4s3)CC1)C(=O)C(C)O2` (centres undefined), the concentration at half-maximal activity (AC50) under setting [1] is 20.6 µM [falling, partial curve, poor fit].

In the case of `Cc1ccnc(NC(=O)c2ccc(Br)s2)c1`, the AC50 under setting [1] was 12.6 µM [falling, single point].

With `COc1cccc(C(=O)NCCN2CCN(c3ccccc3)CC2)c1`, the AC50 under setting [1] was 11.2 µM [rising, single point].

Regarding `COC(=O)Nc1c(-c2ccccc2)nc2ccc(Cl)cn12`, under setting [1], the AC50 is 11.2 µM [falling, partial curve].

As to `Cc1csc(C(C#N)C(=O)c2cc3ccccc3o2)n1` (centres undefined), the concentration at half-maximal activity (AC50) under setting [1] is 2 µM [falling, partial curve, poor fit].

Consider `COC(=O)c1cc(NC(=O)CN(c2cccc(OC)c2)S(=O)(=O)c2ccccc2)ccc1Cl`, for which the concentration at half-maximal activity (AC50) by setting is: under setting [1], 20.6 µM [falling, partial curve, poor fit]; under setting [2], 20.6 µM [rising, single point].

For `CCOC(=O)N(CC)OC(=O)Nc1ccc(Cl)cc1`, the AC50 under setting [1] is 0.291 µM [rising, partial curve, poor fit].

Take `Nc1ccc(OCc2ccco2)cc1`: under setting [1], the AC50 was 6.31 µM [rising, partial curve, poor fit].

For `CCOC(=O)C1CCN(C(=O)c2cc3c(ccc4ccccc43)o2)CC1`, the concentration at half-maximal activity (AC50) under setting [1] was 4.47 µM [falling, partial curve, poor fit].

As for `O=C(NCCc1c[nH]c2ccccc12)C(=O)Nc1ccccc1`, the AC50 under setting [1] was 11.2 µM [falling, partial curve].

Regarding `COc1ccccc1C(C)NC(=O)Cc1ccsc1` (centres undefined), under setting [1], the concentration at half-maximal activity (AC50) is 31.6 µM [rising, single point].

Regarding `COc1ccc(C)cc1NC(=O)CCCN1C(=O)NC(C)(C)C1=O`, the concentration at half-maximal activity (AC50) under setting [1] was 29.1 µM [rising, single point].

Turning to `N#Cc1ccc(-c2ccc(OCC(O)CN3CCOCC3)cc2)cc1` (centres undefined), under setting [1], the AC50 is 3.55 µM [rising, full curve, poor fit].

As to `CCc1cc(=O)oc2c(CN3CCCC3)c(O)c(Cl)cc12`, the concentration at half-maximal activity (AC50) under setting [1] is 29.1 µM [falling, single point].

`N#C/C(=C\c1cn(Cc2cccc(F)c2)c2ccccc12)C(=O)NCc1ccco1`: under setting [1], the AC50 was 29.1 µM [rising, single point].

Take `CN(C)c1cc2c(cc1NC(=O)c1ccccc1Cl)n(C)c(=O)n2C`: the AC50 under setting [1] is 0.316 µM [rising, full curve, poor fit].

On to `Cc1nc2nc(-c3ccccc3)[nH]n2c(=O)c1Cc1ccccc1`, for which the concentration at half-maximal activity (AC50) under setting [1] is 3.26 µM [falling, full curve, poor fit].

Consider `O=C(c1ccccc1[N+](=O)[O-])N1N=C(c2ccccc2)CC1(O)C(F)(F)F` (centres undefined), for which the AC50 under setting [1] is 17.8 µM [falling, single point].

In the case of `Fc1cccc(NC(=S)NNc2c3ccccc3nc3ccccc23)c1`, the half-maximal activity concentration (AC50) was 14.1 µM [falling, partial curve, poor fit] under setting [1] and 35.5 µM [rising, partial curve, poor fit] under setting [2].

Turning to `O=C(/C=C/Nc1ccc(Br)cc1F)c1ccccc1`, under setting [1], the AC50 is 3.26 µM [falling, full curve].

With `Cc1cc(Oc2ccc(C#N)cc2)nc(NCc2ccccc2)n1`, the half-maximal activity concentration (AC50) under setting [1] is 0.794 µM [rising, full curve, poor fit].

Regarding `COc1ccc(N2CCN(C(=O)COC(=O)c3ccccc3OCc3ccc(F)cc3)CC2)cc1`, under setting [1], the half-maximal activity concentration (AC50) is 5.8 µM [rising, single point].

With `O=C(Nc1ccc(F)cc1F)N1CCC(c2nc3ccccc3o2)CC1`, under setting [1], the AC50 was 3.16 µM [rising, partial curve, poor fit].

In the case of `COc1cc(C(=O)NCC(c2cccs2)N2CCOCC2)cc(Br)c1OCc1ccccc1` (centres undefined), the half-maximal activity concentration (AC50) under setting [1] is 23.1 µM [falling, single point].

These data come from PubChem BioAssay AID493014 (National Center for Advancing Translational Sciences (NCATS), 2011).
